PubChem BioAssay AID743121 | NCATS | 2013

- Test: 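Genes whose silencing strengthens cell killing by camptothecin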 (primary screen)
- Cells: MDA-MB-231 cells, a human breast cancer line
- Reagent: single siRNA against human genes, 20 nM siRNA (0.8 pmol per well)
- Duration: 120 h (drug added 48 h after transfection, read 72 h later)
- Challenge: camptothecin 20 nM (about EC30) for 72 h; vehicle 0.1% DMSO in parallel plates
- Detection: 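CellTiter-Glo ATP signal, scaled to control siRNA as percent viability; sensitisation given as log2 of untreated divided by camptothecin-treated viability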
- Reading the numbers: log2 vehicle/camptothecin viability: higher = stronger sensitisation to camptothecin; viability with camptothecin and viability without drug: higher = more viable cells
- Active means: 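Each gene scored by redundant siRNA activity (RSA) over its individual siRNA ratios; a gene is called active at p < 0.001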
Shown is an unselected part of about 26,000 deposited reagents. Over the whole deposit, 167 (0.63%) got an active call. 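Calls are per gene from RSA p-values that are not deposited; an individual active-marked siRNA can sensitise only weakly.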 A number with no mark means an inactive call. The numbers tell different reagents against one gene apart. No sequences are given here.

gene	siRNA no.	log2 vehicle/camptothecin viability	viability with camptothecin (% of control)	viability without drug (% of control)
KCNC1	1	-0.0185	80.1	79
KCNC1	2	-0.108	64.3	59.7
KCNC1	3	-0.421	18.8	14.1
KCNC1	4	0.441	73.7	100
TRAP1	1	0.701	7.34	11.9
TRAP1	2	0.41	49.6	65.8
TRAP1	3	-0.371	37.7	29.1
TXNDC15	1	-0.255	103	86.2
TXNDC15	2	-0.256	70.3	58.9
TXNDC15	3	-0.33	99.3	79
TXNDC15	4	-0.0285	109	107
TUBB2B	1	-0.0662	101	96.7
TUBB2B	2	-0.429	129	95.4
TUBB2B	3	-0.338	133	105
TUBB2B	4	-0.187	92.1	80.9
CCL19	1	-0.327	69.3	55.2
CCL19	2	-0.232	89	75.8
CCL19	3	-0.146	61.4	55.5
CCL19	4	-0.0809	50.6	47.8
EI24	1	-0.628	53.5	34.6
EI24	2	-0.24	88.4	74.8
EI24	3	1.28	20.8	50.6
EI24	4	-0.106	102	94.9
BSND	1	-0.0359	97.1	94.7
BSND	2	-0.0164	56.2	55.6
BSND	3	-0.412	65.3	49
BSND	4	0.169	39	43.8
NCOR1	1	-0.272	73.5	60.9
NCOR1	2	-0.148	86.8	78.4
NCOR1	3	-0.816	49.7	28.2
UBE2S	1	-0.42	47.7	35.6
UBE2S	2	0.299	80.7	99.3
UBE2S	3	0.708	21.9	35.8
UBE2S	4	-0.156	108	97.3
CAV2	1	-0.167	74.4	66.3
CAV2	2	0.805	43.2	75.4
CAV2	3	-0.387	102	78
CAV2	4	-0.069	56.9	54.2
CAV2	5	-0.122	97.2	89.3
CAV2	6	0.174	81.9	92.4
CAV2	7	-0.0015	108	108
CAV2	8	0.237	78.8	92.9
PDE4C	1	-0.337	83.3	65.9
PDE4C	2	-0.0231	52.1	51.2
PDE4C	3	-0.00731	61.8	61.5
PDE4C	4	0.201	53.5	61.5
PLXNA3	1	-0.049	111	107
PLXNA3	2	-0.256	97	81.2
PLXNA3	3	-0.301	55.4	45
PLXNA3	4	-0.0108	96.1	95.4
PRKAR2B	1	0.0483	87.2	90.2
PRKAR2B	2	-0.0242	48.7	47.9
PRKAR2B	3	0.0442	80.6	83.1
PRKAR2B	4	0.16	35.6	39.7
SLC7A5P1	1	-0.466	115	83.5
SLC7A5P1	2	-0.14	107	97.1
SLC7A5P1	3	0.411	10.8	14.4
PTGR1	1	-0.319	120	96
PTGR1	2	0.146	38.7	42.8
PTGR1	3	-0.0208	104	103
PTGR1	4	-0.0631	104	99.7
DNTTIP2	1	-0.507	67.4	47.4
DNTTIP2	2	-0.535	60	41.4
DNTTIP2	3	-0.403	52.3	39.5
DNTTIP2	4	-0.645	91.3	58.4
FKBP3	1	-0.17	91.1	81
FKBP3	2	-0.386	76	58.1
FKBP3	3	-0.439	46.8	34.5
